Assay results taken from the supplement of paper PMC10735217.
The list shows a part of the results. This data set is noisy: repeats of one test often differ as much as different tests do.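 The human kidney-derived cells carry a stably integrated construct of eight TEAD-binding elements driving luciferase, read by luminescence in a drug-repurposing library screen. A compound counts as a hit when its signal is more than five robust Z scores above the plate mean.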

System: HEK293A TEAD-LUC reporter
Test: TEAD-luciferase reporter activity (YAP activation), robust Z score vs plate; higher = stronger YAP/TEAD activation
Conditions: 24 h

SMILES | TEAD-luciferase reporter activity (compound concentration: 200 nM) | TEAD-luciferase reporter activity (compound concentration: 2 uM) | TEAD-luciferase reporter activity (compound concentration: 10 uM)
O=C(O)c1ccccc1Nc1cccc(OCc2ccc3ccccc3n2)c1 | inactive: -1.3 | inactive: -0.897 | active: 5.78
COc1cccc(C(=O)N[C@@H]2C[C@H]3CC[C@@H](C2)N3Cc2ccccc2)c1OC [Tropapride] | inactive: -1.06 | inactive: -1.61 | inactive: -0.605
CC(CN1C(=O)c2cccnc2Nc2ccccc21)N(C)C (configuration not stated) | inactive: -0.382 | inactive: -0.91 | inactive: -1.16
CCCCOc1ccc(S(=O)(=O)N2CC3(C[C@@H]2C(=O)NO)OCCCO3)cc1 | inactive: -0.742 | inactive: -0.801 | inactive: 0.00629
CCCCOC(=O)NS(=O)(=O)c1ccc(CCC)cc1-c1ccc(Cn2c(CC)nc3c(C)cc(C)nc32)cc1 | active: 5.16 | inactive: 1.13 | inactive: 1.4
CNCCC(Oc1ccccc1SC)c1ccccc1 (configuration not stated) | inactive: -0.269 | inactive: 0.224 | inactive: -0.317
NS(=O)(=O)c1cncc(-c2nc(NCc3ccccn3)c3c(-c4ccccc4)cccc3n2)c1 | inactive: 1.53 | inactive: 0.358 | inactive: 1.85
COc1ccc(Cl)cc1C(=O)NCCc1ccc(S(=O)(=O)NC(=O)NC2CCCCC2)cc1 [glyburide] | – | inactive: 0.847 | –
COc1ccc(Cl)cc1C(=O)NCCc1ccc(S(=O)(=O)NC(=O)NC2CCCCC2)cc1 | inactive: 0.299 | – | inactive: 1.74
Oc1ccc(C2=Cc3ccc(O)cc3OC2)cc1 [Idronoxil] | inactive: -0.693 | inactive: -0.16 | inactive: 0.158
O=c1oc2ccccc2c(O)c1Cc1c(O)c2ccccc2oc1=O [Dicoumarol] | inactive: -2.15 | inactive: -0.257 | inactive: -0.526
CONC(=O)c1ccc(C)c(Nc2ncnn3cc(C(=O)NCc4ccccn4)c(C)c23)c1 | inactive: -1.39 | inactive: -1.23 | inactive: -0.624
Cn1c(=O)cc(N2CCC[C@@H](N)C2)n(Cc2cc(F)ccc2C#N)c1=O [Trelagliptin succinate] | inactive: -0.424 | inactive: -0.878 | inactive: -2.77
Cc1oc(-c2ccccc2)nc1CCC(=O)c1ccc(CC2SC(=O)NC2=O)cc1 (configuration not stated) [Darglitazone] | inactive: -0.776 | inactive: 1.38 | inactive: 0.546
CS(=O)(=O)Oc1ccc2c(NC(N)=O)c(C(=O)c3ccc(Cl)cc3Cl)oc2c1 [Lirimilast] | inactive: -0.441 | inactive: -0.945 | active: 5.44
C=C1/C(=C\C=C2/CCC[C@]3(C)[C@@H]([C@H](C)/C=C/[C@H](C)C(C)C)CC[C@@H]23)C[C@@H](O)C[C@@H]1O [Doxercalciferol] | inactive: 1.06 | inactive: 0.612 | inactive: 3.14
COc1cccc(C(=O)Nc2ccc3c(c2)CCN(C(=O)Oc2ccccc2)C3)c1-c1ccc(C(F)(F)F)cc1 | inactive: -1.27 | inactive: -1.19 | inactive: 0.772
CCC1C(=O)OCC1Cc1cncn1C (configuration not stated) [pilocarpine, Alza] | inactive: -1.54 | inactive: 0.321 | inactive: 0.361
CNC(=S)C1(c2ccccn2)CCCS1 (configuration not stated) [Picartamide] | inactive: -0.837 | inactive: -1.65 | inactive: -1.13
CC(C)/N=C/Nc1ccc(-c2c[nH]cn2)cc1 | inactive: 1.68 | inactive: -0.198 | inactive: -1.29

SMILES | TEAD-luciferase reporter activity (compound concentration: 200 nM) | TEAD-luciferase reporter activity (compound concentration: 2 uM) | TEAD-luciferase reporter activity (compound concentration: 10 uM)
COc1ccccc1OCCNCC(O)c1ccc(C)c(S(N)(=O)=O)c1 (configuration not stated) | inactive: 2.15 | inactive: -1.04 | inactive: -0.87
C[N+](C)(C)CCOC(N)=O | inactive: -2.05 | – | inactive: 3.24
C[N+](C)(C)CCOC(N)=O [Carbachol] | – | inactive: -0.22 | –
COc1cccc2c1ccc1nc3cccc(C(=O)N[C@@H](C)CN(C)C)c3nc12 | inactive: -0.168 | inactive: 0.0342 | inactive: 1.49
CC(C)(C)C(=O)Oc1ccc(S(=O)(=O)Nc2ccccc2C(=O)NCC(=O)O)cc1 [sivelestat sodium hydrate] | inactive: -1.64 | inactive: 4.17 | inactive: -0.304
O=C(O)[C@@H]1CCCN(CCC=C2c3ccccc3CCc3ccccc32)C1 | inactive: -1.06 | inactive: -0.993 | inactive: -0.401
CCCC(=O)c1c(O)cc(OC)c(C)c1O | inactive: 0.0847 | inactive: -0.788 | inactive: -0.755
C[C@@](O)(C(=O)Nc1ccc(C(=O)c2ccccc2)cc1)C(F)(F)F | inactive: 0.904 | inactive: 2.08 | inactive: -0.0137
CCNC(=O)[C@@H]1CCCN1C(=O)[C@H](CCCNC(=N)N)NC(=O)[C@@H](NC(=O)[C@H](NC(=O)[C@H](Cc1ccc(O)cc1)NC(=O)C(CO)NC(=O)[C@H](Cc1c[nH]c2ccccc12)NC(=O)[C@H](Cc1c[nH]cn1)NC(=O)C1CCC(=O)N1)C(C)C)C(C)C (some centres not stated) [analog of LEUPROLIDE ACETATE] | inactive: -1.5 | inactive: -0.297 | inactive: 0.487
O=C(NCCN1CCOCC1)c1ccc(Cl)cc1 | inactive: 0.109 | – | inactive: 1.49
O=C(NCCN1CCOCC1)c1ccc(Cl)cc1 [moclobemide] | – | inactive: 0.0964 | –
CCCCC(=O)c1ccccc1C(=O)c1ccc2[nH]c(NC(=O)OC)nc2c1 | inactive: -1.41 | inactive: -0.465 | inactive: 1.62
Cc1ccc2c(Br)cc(Br)c(OC(=O)c3ccc(C#N)cc3)c2n1 | inactive: -0.241 | inactive: -2.72 | inactive: 0.972
COCCOC(=O)C1=C(C)NC(C)=C(C(=O)OC(C)C)C1c1cccc(C#N)c1Cl (configuration not stated) | inactive: -1.04 | inactive: -1.26 | inactive: 0.849
COc1cccc(-c2ccc(CN3CCCC(NC(=O)c4ccc(C)cc4)C3)cc2)c1 (configuration not stated) | active: 10.4 | – | inactive: -1.34
Cc1cc(Cl)cc2c1N(Cc1cccc(C(F)(F)F)c1)C(=O)C21NC(=O)NC1=O (configuration not stated) | inactive: 0.77 | inactive: -1.2 | inactive: 3.7
Clc1ccc2c(c1)CCc1cccnc1C2=C1CCNCC1 | inactive: -2.67 | – | inactive: -2.28
Clc1ccc2c(c1)CCc1cccnc1C2=C1CCNCC1 [desloratadine] | – | inactive: -1.85 | –
CCN(CC)CCNC(=O)COc1ccc(Cl)cc1 [Clofexamide] | inactive: -1.4 | – | inactive: 2.37
CCN(CC)CCNC(=O)COc1ccc(Cl)cc1 | – | inactive: -0.613 | –

SMILES | TEAD-luciferase reporter activity (compound concentration: 200 nM) | TEAD-luciferase reporter activity (compound concentration: 2 uM) | TEAD-luciferase reporter activity (compound concentration: 10 uM)
CC[C@H](NC(=O)[C@H](CS(=O)(=O)CC1CC1)N[C@@H](c1ccc(F)cc1)C(F)(F)F)C(=O)C(=O)NC1CC1 | inactive: 3.07 | inactive: -1.58 | inactive: -0.266
CC(=O)Nc1ccc(CC(=O)O)cc1 [Actarit] | – | inactive: 1.21 | –
CC(=O)Nc1ccc(CC(=O)O)cc1 | inactive: 1.84 | – | inactive: -0.765
CCCC12CCC(C(=O)O)(CC1)CC2 | inactive: -1.2 | inactive: 1.02 | inactive: 1.6
N#Cc1ccc(N2N=C3c4ccc(C(=O)O)cc4CC[C@@H]3[C@@H]2C2CCCC2)cc1Cl | inactive: -1.32 | inactive: -0.152 | inactive: 0.472
COc1ccccc1CCC(C)(C)NCC(O)c1ccc(O)cc1 (configuration not stated) | inactive: 0.179 | inactive: 0.221 | inactive: 0.269
COc1c(N2CCC/C(=C(/F)CN)C2)c(F)cc2c(=O)c(C(=O)O)cn(C3CC3)c12 | inactive: -1.85 | inactive: -2.15 | inactive: 1.17
COc1c(O)cc2c(c1O)C1OC(CO)C(O)C(O)C1OC2=O (configuration not stated) | inactive: -1.11 | inactive: -0.226 | inactive: -0.0338
CS(=O)(=O)Nc1cc2c(cc1Oc1ccc(F)cc1F)C(=O)CC2 | inactive: -0.118 | inactive: -1.54 | inactive: -0.762
O=[N+]([O-])c1ccc(N=C=S)cc1 | inactive: -0.624 | inactive: 1.48 | inactive: -0.675
CN1CCc2c(c3ccccc3n2Cc2ccccc2)C1 | inactive: 1.88 | inactive: 1.03 | inactive: 1.96
CC(=O)n1cc(F)c(=O)n(C(=O)c2ccccc2C)c1=O | inactive: 2.47 | inactive: -0.253 | inactive: 2.03
Cc1cc2ncc(C(=O)NCC(C)(C)NCC(=O)N3CCC[C@H]3C#N)cn2n1 [Anagliptin] | inactive: -0.692 | inactive: -0.341 | inactive: -0.623
C=C1CC[C@H]2C(C)(CCC(O)[C@@]2(C)CO)[C@@H]1C/C=C1\C(=O)OCC1O (some centres not stated) [Andrographolide] | inactive: -0.366 | inactive: -1.66 | inactive: -1.22
O=C(/C=C/c1cccnc1)NCCCCC1CCN(C(=O)c2ccccc2)CC1 [Daporinad] | inactive: 1.37 | inactive: 0.985 | inactive: 0.277
CCCCCCC(C(C)O)n1cnc2c(=O)[nH]cnc21 (configuration not stated) | inactive: -1.22 | inactive: -0.343 | inactive: -1.71
OC[C@@H](O)[C@@H](O)[C@H](O)[C@@H](O)CO [D-Sorbitol] | inactive: 1.92 | – | inactive: 0.539
COc1cc(OC)cc(N2CCN(C(=O)Nc3nc4cc(F)ccc4nc3OC)CC2)c1 | inactive: -1.22 | inactive: 2.02 | inactive: 1
NCc1c[nH]c(=S)n1[C@H]1CCc2c(F)cc(F)cc2C1 [Pharmaprojects No. 4698] | inactive: -1.23 | inactive: -1.46 | inactive: 0.331

Quoted from the listing:
C=C1CC[C@H]2C(C)(CCC(O)[C@@]2(C)CO)[C@@H]1C/C=C1\C(=O)OCC1O (some centres not stated) [Andrographolide] | TEAD-luciferase reporter activity (compound concentration: 2 uM): inactive: -1.66
COc1ccccc1CCC(C)(C)NCC(O)c1ccc(O)cc1 (configuration not stated) | TEAD-luciferase reporter activity (compound concentration: 2 uM): inactive: 0.221
